Where two headings read alike, the source gives them in different places. Some of these results come from one statement about several compounds together. At least one compound was matched to its structure with a doubt left.
How the values were obtained:
Assay type in all cases: cell-based, hepatitis C virus (HCV)
[1] = tested on: HCV genotype 1a D168V variant transient replicon; test: genotype 1a D168V transient replicon assay
[2] = tested on: HCV genotype 3a Q168R variant transient replicon; test: genotype 3a Q168R transient replicon assay
[3] = tested on: HCV genotype 3a wild-type transient replicon; test: genotype 3a wild-type transient replicon assay
[4] = tested on: HCV genotype 3a wild-type stable replicon (chimeric, NS3 gene from genotype 3a isolates); test: genotype 3a wild-type stable replicon assay
[5] = tested on: HCV genotype 1a R155K variant transient replicon; test: genotype 1a R155K transient replicon assay
[6] = tested on: HCV genotype 1b wild-type transient replicon; test: genotype 1b wild-type transient replicon assay
[7] = tested on: HCV genotype 1a wild-type transient replicon; test: genotype 1a wild-type transient replicon assay
[8] = target: HCV genotype 1a (1a-H77) stable subgenomic replicon; test: genotype 1a Huh-7 stable replicon assay (luciferase reporter)
[9] = target: HCV genotype 1b Con1 stable subgenomic replicon; test: genotype 1b Con1 stable replicon assay (luciferase reporter)
[10] = genotype 3a Q168R transient replicon, range bounds printed with their own units (nM, μM)
[11] = genotype 1a R155K transient replicon
[12] = genotype 1a wild-type transient replicon
[13] = genotype 1a Huh-7 stable replicon, luciferase, 5% FBS
[14] = genotype 1b Con1 stable replicon
[15] = genotype 1b wild-type transient replicon
[16] = genotype 1a D168V transient replicon, range bounds printed with their own units (nM, μM)
[17] = genotype 3a wild-type stable replicon
[18] = genotype 1a D168V transient replicon

SMILES: CC[C@@H]1C[C@]1(NC(=O)[C@@H]1C[C@@H]2CN1C(=O)[C@H](C(C)(C)C)NC(=O)O[C@@H]1CC[C@H]1OC/C=C/C(F)(F)c1nc3ccccc3nc1O2)C(=O)NS(=O)(=O)C1CC1 [Example 36]
- EC50 [1]: 10 to 1000 nM

SMILES: CC[C@@H]1C[C@]1(NC(=O)[C@@H]1C[C@@H]2CN1C(=O)[C@H](C(C)(C)C)NC(=O)O[C@@H]1CC[C@H]1OC/C=C/C(F)(F)c1nc3ccccc3nc1O2)C(=O)NS(=O)(=O)C1(C)CC1 [Example 40]
- EC50 [1]: 10 to 1000 nM

SMILES: CC(C)(C)[C@@H]1NC(=O)O[C@@H]2CCCC[C@H]2OC/C=C/C(F)(F)c2nc3ccccc3nc2O[C@@H]2C[C@@H](C(=O)N[C@]3(C(=O)NS(=O)(=O)C4CC4)C[C@H]3C(F)F)N(C2)C1=O [Example 90]
- EC50 [2, 10]: 100 to 1000 nM
- EC50 ([3]; genotype 3a wild-type transient replicon, range bounds printed with their own units (nM, μM)): 100 to 1000 nM

SMILES: CC[C@@H]1C[C@]1(NC(=O)[C@@H]1C[C@@H]2CN1C(=O)[C@H](C(C)(C)C)NC(=O)O[C@@H]1CCC[C@H]1OC/C=C/C(F)(F)c1nc3cc(OC)ccc3nc1O2)C(=O)NS(=O)(=O)C1CC1 [Example 277]
- EC50 [4]: 100 to 1000 nM
- EC50 [1]: 10 to 1000 nM
- EC50 [2]: 100 to 1000 nM
- EC50 [3]: 100 to 1000 nM

SMILES: CC[C@@H]1C[C@]1(NC(=O)[C@@H]1C[C@@H]2CN1C(=O)[C@H](C(C)(C)C)NC(=O)O[C@@H]1CCC[C@H]1OC/C=C/C(F)(F)c1nc3cc(OC)ccc3nc1O2)C(=O)NS(=O)(=O)C1(C)CC1 [Example 280]
- EC50 [4]: < 10 nM
- EC50 [2]: < 100 nM
- EC50 [3]: < 10 nM

SMILES: C=C[C@@H]1C[C@]1(NC(=O)[C@@H]1C[C@@H]2CN1C(=O)[C@H](C(C)(C)C)NC(=O)O[C@@H]1CCC[C@H]1OC/C=C/C(F)(F)c1nc3cc(OC)ccc3nc1O2)C(=O)NS(=O)(=O)C1(C)CC1 [Example 281]
- EC50 [5]: < 0.1 nM
- EC50 [6]: < 1 nM
- EC50 [1]: < 1 nM
- EC50 [2]: < 100 nM

SMILES: CC(C)(C)[C@@H]1NC(=O)O[C@@H]2CCC[C@H]2OC/C=C/C(F)(F)c2nc3ccc(C(F)(F)F)cc3nc2O[C@@H]2C[C@@H](C(=O)N[C@]3(C(=O)NS(=O)(=O)C4(C)CC4)C[C@H]3C(F)F)N(C2)C1=O [Example 283]
- EC50 [5, 11]: < 0.1 nM
- EC50 [7, 12]: < 0.1 nM
- EC50 [8, 13]: < 1 nM
- EC50 [9, 14]: < 1 nM
- EC50 [6, 15]: < 1 nM
- EC50 ([2]; genotype 3a Q168R transient replicon): < 100 nM
- EC50 ([3]; genotype 3a wild-type transient replicon): < 10 nM

SMILES: C=C[C@@H]1C[C@]1(NC(=O)[C@@H]1C[C@@H]2CN1C(=O)[C@H](C(C)(C)C)NC(=O)O[C@@H]1CCC[C@H]1OC/C=C/C(F)(F)c1nc3ccc(C(F)(F)F)cc3nc1O2)C(=O)NS(=O)(=O)C1(C)CC1 [Example 284]
- EC50 [5]: < 0.1 nM
- EC50 [7]: < 0.1 nM
- EC50 [8]: < 1 nM
- EC50 [6]: < 1 nM
- EC50 [2]: 100 to 1000 nM

SMILES: CC(C)(C)[C@@H]1NC(=O)O[C@@H]2CCC[C@H]2OC/C=C/C(F)(F)c2nc3ccc(C(F)(F)F)cc3nc2O[C@@H]2C[C@@H](C(=O)N[C@]3(C(=O)NS(=O)(=O)C4CC4)C[C@H]3C(F)F)N(C2)C1=O [Example 285]
- EC50 [6, 15]: < 1 nM
- EC50 [1, 16]: 10 to 1000 nM
- EC50 [2, 10]: 100 to 1000 nM

SMILES: C=C[C@@H]1C[C@]1(NC(=O)[C@@H]1C[C@@H]2CN1C(=O)[C@H](C(C)(C)C)NC(=O)O[C@@H]1CCC[C@H]1OC/C=C/C(F)(F)c1nc3cc(C(F)(F)F)ccc3nc1O2)C(=O)NS(=O)(=O)C1(C)CC1 [Example 286]
- EC50 [6]: < 1 nM
- EC50 [1]: 10 to 1000 nM
- EC50 [2]: 100 to 1000 nM
- EC50 [3]: 100 to 1000 nM

SMILES: COc1ccc2nc3c(nc2c1)O[C@@H]1C[C@@H](C(=O)N[C@]2(C(=O)NS(=O)(=O)C4(C)CC4)C[C@H]2C(F)F)N(C1)C(=O)[C@H](C(C)(C)C)NC(=O)O[C@@H]1CCC[C@H]1OC/C=C/C3(F)F [Example 287]
- EC50 [5, 11]: < 0.1 nM
- EC50 [7, 12]: < 0.1 nM
- EC50 [8, 13]: < 1 nM
- EC50 [4, 17]: < 10 nM
- EC50 [6, 15]: < 1 nM
- EC50 [1, 18]: < 1 nM

SMILES: C=C[C@@H]1C[C@]1(NC(=O)[C@@H]1C[C@@H]2CN1C(=O)[C@H](C(C)(C)C)NC(=O)O[C@@H]1CCC[C@H]1OC/C=C/C(F)(F)c1nc3ccc(OC)cc3nc1O2)C(=O)NS(=O)(=O)C1CC1 [Example 288]
- EC50 [5]: < 0.1 nM
- EC50 [7]: < 0.1 nM
- EC50 [8]: < 1 nM
- EC50 [4]: < 10 nM
- EC50 [6]: < 1 nM
- EC50 [1]: < 1 nM

SMILES: C=C[C@@H]1C[C@]1(NC(=O)[C@@H]1C[C@@H]2CN1C(=O)[C@H](C(C)(C)C)NC(=O)O[C@@H]1CCC[C@H]1OC/C=C/C(F)(F)c1nc3ccc(OC)cc3nc1O2)C(=O)NS(=O)(=O)C1(C)CC1 [Example 289]
- EC50 [5]: < 0.1 nM
- EC50 [7]: < 0.1 nM
- EC50 [8]: < 1 nM
- EC50 [4]: < 10 nM
- EC50 [6]: < 1 nM
- EC50 [1]: < 1 nM
- EC50 [2]: < 100 nM
- EC50 [3]: < 10 nM

SMILES: C=C[C@@H]1C[C@]1(NC(=O)[C@@H]1C[C@@H]2CN1C(=O)[C@H](C(C)(C)C)NC(=O)O[C@@H]1CCC[C@H]1OC/C=C/C(F)(F)c1nc3ccc4ccccc4c3nc1O2)C(=O)NS(=O)(=O)C1(C)CC1 [Example 291]
- EC50 [5]: < 0.1 nM
- EC50 [7]: < 0.1 nM
- EC50 [8]: < 1 nM
- EC50 [4]: < 10 nM
- EC50 [6]: < 1 nM
- EC50 [1]: < 1 nM
- EC50 [2]: < 100 nM
- EC50 [3]: < 10 nM

SMILES: CC(C)(C)[C@@H]1NC(=O)O[C@@H]2CCC[C@H]2OC/C=C/C(F)(F)c2nc3c(ccc4ccccc43)nc2O[C@@H]2C[C@@H](C(=O)N[C@]3(C(=O)NS(=O)(=O)C4(C)CC4)C[C@H]3C(F)F)N(C2)C1=O [Example 292]
- EC50 [6, 15]: < 1 nM
- EC50 [1, 18]: < 1 nM

SMILES: C=C[C@@H]1C[C@]1(NC(=O)[C@@H]1C[C@@H]2CN1C(=O)[C@H](C(C)(C)C)NC(=O)O[C@@H]1CCC[C@H]1OC/C=C/C(F)(F)c1nc3c(ccc4ccccc43)nc1O2)C(=O)NS(=O)(=O)C1(C)CC1 [Example 293]
- EC50 [6]: < 1 nM
- EC50 [2]: < 100 nM

SMILES: C=C[C@@H]1C[C@]1(NC(=O)[C@@H]1C[C@@H]2CN1C(=O)[C@H](C(C)(C)C)NC(=O)O[C@@H]1CCC[C@H]1OC/C=C/C(F)(F)c1nc3ccc(F)cc3nc1O2)C(=O)NS(=O)(=O)C1(C)CC1 [Example 294]
- EC50 [5]: < 0.1 nM
- EC50 [7]: < 0.1 nM
- EC50 [8]: < 1 nM
- EC50 [4]: < 10 nM
- EC50 [9]: < 1 nM
- EC50 [6]: < 1 nM

SMILES: C=C[C@@H]1C[C@]1(NC(=O)[C@@H]1C[C@@H]2CN1C(=O)[C@H](C(C)(C)C)NC(=O)O[C@@H]1CCC[C@H]1OC/C=C/C(F)(F)c1nc3cc(F)ccc3nc1O2)C(=O)NS(=O)(=O)C1(C)CC1 [Example 295]
- EC50 [5]: < 0.1 nM
- EC50 [7]: < 0.1 nM
- EC50 [8]: < 1 nM
- EC50 [9]: < 1 nM
- EC50 [6]: < 1 nM
- EC50 [1]: < 1 nM

SMILES: CC(C)(C)[C@@H]1NC(=O)O[C@@H]2CCC[C@H]2OC/C=C/C(F)(F)c2nc3ccc(F)cc3nc2O[C@@H]2C[C@@H](C(=O)N[C@]3(C(=O)NS(=O)(=O)C4(C)CC4)C[C@H]3C(F)F)N(C2)C1=O [Example 296]
- EC50 [5, 11]: < 0.1 nM
- EC50 [8, 13]: < 1 nM
- EC50 [4, 17]: < 10 nM
- EC50 [9, 14]: < 1 nM
- EC50 [6, 15]: < 1 nM
- EC50 [1, 18]: < 1 nM

SMILES: CC(C)(C)[C@@H]1NC(=O)O[C@@H]2CCC[C@H]2OC/C=C/C(F)(F)c2nc3ccc(F)cc3nc2O[C@@H]2C[C@@H](C(=O)N[C@]3(C(=O)NS(=O)(=O)C4CC4)C[C@H]3C(F)F)N(C2)C1=O [Example 297]
- EC50 [5, 11]: < 0.1 nM
- EC50 [7, 12]: < 0.1 nM
- EC50 [8, 13]: < 1 nM
- EC50 [6, 15]: < 1 nM
- EC50 [1, 18]: < 1 nM

SMILES: CCC1CC1(NC(=O)C1CC2CN1C(=O)C(C(C)(C)C)NC(=O)OC(C)C(C)OCC=CC(F)(F)c1nc3ccccc3nc1O2)C(=O)NS(=O)(=O)C1CC1 (stereo not shown) [Example 298]
- EC50 [1, 16]: 10 to 1000 nM

SMILES: CCC1CC1(NC(=O)C1CC2CN1C(=O)C(C(C)(C)C)NC(=O)OC(C)C(C)OCC=CC(F)(F)c1nc3ccccc3nc1O2)C(=O)NS(=O)(=O)C1(C)CC1 (stereo not shown) [Example 299]
- EC50 [1, 16]: 10 to 1000 nM
